Tested on: HeLa-HaloTag-mGluR2
Assay: Extracellular DarT labelling, LFQ proteomics
Type: cell-based, human
Conditions: transfected vs untransfected HeLa

SMILES: Cn1c2nc(=O)n(CC(=O)NCCOCCOCCOCCOCCCCCCCl)c(=O)c-2cc2ccccc21 [compound 13]
- Cell-surface proteins as share of the enriched proteins: 30%
- Number of significantly enriched proteins (P < 0.05, log2(fold change) > 1) (5 µM 30 min, diazirine 8 250 µM, 450 nm 15 min, three replicates): 169
- Number of enriched proteins annotated as cell-surface proteins (diazirine 8 250 µM, 450 nm 15 min): 51

— publication PMC12669049 (Nature Chemistry, 2025)
